Laboratory results reported in PMC12765055.
These are yes or no findings as the source states them, for the method shown. In cells and extracts the contact can be indirect. Some binding calls cover weakened binding; strength is not graded here.

Molecular target: ryanodine receptor 2 (RyR2) in porcine cardiac SR membranes (pig (endogenous in porcine left ventricle SR))
Assay: FRET or BRET; fluorescence-lifetime FRET from D-FKBP preloaded on H2O2-treated (100 μM) cardiac SR (2 mg/ml) to 1.5 μM A-DPc10; 30 nM free Ca2+, 20 mM PIPES, 150 mM KCl, 0.1 mg/ml BSA; 1536-well plates; only the binder purified

- binding: binds
B1: HL647-DPc10 (DPc10 peptide N-terminally labelled with HiLyte Fluor 647) (peptide)
peptide: GFCPDHKAAMVLFLDRVYGIEVQDFLLHLLEVGFLP
modifications: HiLyte Fluor 647 on the N-terminus
